Test results published in PubChem BioAssay (Tox21).
Where “and” joins values, the source holds several entries; their conditions need not be identical. Equal entries are not always repeated. Inconclusive results, whose numbers are uncertain, are shown with a selection of clear calls. Potencies of inconclusive entries are doubtful fits and often do not repeat. The source holds several records for some structures; these can differ, active in one and inactive in another. Calls of active or inactive are those of the source. The call rests on the fitted dose curve; in most records, active means well fitted curve in the direction sought with a large enough effect in the repeat runs; inconclusive means weak or mixed curves; inactive means no such curve, though single readings can be large; an effect the other way counts as inactive or inconclusive.

Chains of the proteins cited; added tags and fusions are not shown. Lines headed by an entry give the natural chain unless they say otherwise; changes in a name come on top.
UniProt P10635, whole entry, looked up: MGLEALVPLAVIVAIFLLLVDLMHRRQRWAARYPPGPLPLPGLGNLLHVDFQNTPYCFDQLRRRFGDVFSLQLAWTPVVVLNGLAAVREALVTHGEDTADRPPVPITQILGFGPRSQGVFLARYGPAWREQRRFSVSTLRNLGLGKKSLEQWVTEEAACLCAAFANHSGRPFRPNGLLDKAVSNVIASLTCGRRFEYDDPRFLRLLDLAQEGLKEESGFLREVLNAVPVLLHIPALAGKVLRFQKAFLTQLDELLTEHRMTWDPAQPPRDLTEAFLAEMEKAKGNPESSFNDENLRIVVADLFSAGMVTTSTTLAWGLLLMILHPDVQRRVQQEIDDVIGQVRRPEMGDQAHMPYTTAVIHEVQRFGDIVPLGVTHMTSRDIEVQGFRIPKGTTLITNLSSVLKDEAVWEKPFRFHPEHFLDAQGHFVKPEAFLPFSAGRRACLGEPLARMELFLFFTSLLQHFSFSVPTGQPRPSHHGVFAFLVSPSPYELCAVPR
UniProt P33261, whole entry, looked up: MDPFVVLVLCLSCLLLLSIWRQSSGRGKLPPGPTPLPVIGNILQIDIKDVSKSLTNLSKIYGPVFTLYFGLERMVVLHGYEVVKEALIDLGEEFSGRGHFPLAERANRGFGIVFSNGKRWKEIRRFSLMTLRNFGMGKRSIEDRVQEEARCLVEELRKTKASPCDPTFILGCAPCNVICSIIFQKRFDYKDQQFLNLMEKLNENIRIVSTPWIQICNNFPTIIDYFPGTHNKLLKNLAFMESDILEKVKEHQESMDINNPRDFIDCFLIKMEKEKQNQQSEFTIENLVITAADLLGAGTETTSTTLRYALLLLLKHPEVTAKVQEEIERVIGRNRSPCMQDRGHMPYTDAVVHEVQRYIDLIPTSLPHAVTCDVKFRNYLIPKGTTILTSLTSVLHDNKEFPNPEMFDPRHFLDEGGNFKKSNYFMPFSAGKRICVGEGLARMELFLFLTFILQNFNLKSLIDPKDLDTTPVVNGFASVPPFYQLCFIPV
UniProt P05177, whole entry, looked up: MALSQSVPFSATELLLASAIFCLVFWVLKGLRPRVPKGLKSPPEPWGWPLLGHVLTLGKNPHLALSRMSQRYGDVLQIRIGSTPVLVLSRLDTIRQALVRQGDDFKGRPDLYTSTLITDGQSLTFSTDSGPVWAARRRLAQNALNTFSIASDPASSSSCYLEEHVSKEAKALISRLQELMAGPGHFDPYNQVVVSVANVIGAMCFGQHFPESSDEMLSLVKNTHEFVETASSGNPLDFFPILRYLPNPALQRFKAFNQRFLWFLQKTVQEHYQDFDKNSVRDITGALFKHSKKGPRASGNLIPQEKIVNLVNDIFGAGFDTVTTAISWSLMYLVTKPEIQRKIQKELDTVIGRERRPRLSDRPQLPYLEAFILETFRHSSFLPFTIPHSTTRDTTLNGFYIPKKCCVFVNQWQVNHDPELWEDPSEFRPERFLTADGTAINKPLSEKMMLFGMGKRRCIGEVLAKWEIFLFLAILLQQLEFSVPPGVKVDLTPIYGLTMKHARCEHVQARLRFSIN
UniProt P11712, whole entry, looked up: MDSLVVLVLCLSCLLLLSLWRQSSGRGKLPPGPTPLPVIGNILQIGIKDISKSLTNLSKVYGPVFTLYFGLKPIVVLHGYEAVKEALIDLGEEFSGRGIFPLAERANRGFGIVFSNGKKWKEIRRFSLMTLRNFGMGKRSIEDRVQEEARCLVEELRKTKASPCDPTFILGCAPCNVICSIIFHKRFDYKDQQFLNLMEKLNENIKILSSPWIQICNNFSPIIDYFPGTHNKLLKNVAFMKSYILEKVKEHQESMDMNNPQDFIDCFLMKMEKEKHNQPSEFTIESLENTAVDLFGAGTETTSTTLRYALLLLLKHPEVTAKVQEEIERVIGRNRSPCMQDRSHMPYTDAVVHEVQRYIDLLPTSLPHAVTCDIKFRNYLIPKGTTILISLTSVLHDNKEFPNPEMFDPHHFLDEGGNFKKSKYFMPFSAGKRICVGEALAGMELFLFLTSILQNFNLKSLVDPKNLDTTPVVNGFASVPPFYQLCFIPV
UniProt P08684, whole entry, looked up: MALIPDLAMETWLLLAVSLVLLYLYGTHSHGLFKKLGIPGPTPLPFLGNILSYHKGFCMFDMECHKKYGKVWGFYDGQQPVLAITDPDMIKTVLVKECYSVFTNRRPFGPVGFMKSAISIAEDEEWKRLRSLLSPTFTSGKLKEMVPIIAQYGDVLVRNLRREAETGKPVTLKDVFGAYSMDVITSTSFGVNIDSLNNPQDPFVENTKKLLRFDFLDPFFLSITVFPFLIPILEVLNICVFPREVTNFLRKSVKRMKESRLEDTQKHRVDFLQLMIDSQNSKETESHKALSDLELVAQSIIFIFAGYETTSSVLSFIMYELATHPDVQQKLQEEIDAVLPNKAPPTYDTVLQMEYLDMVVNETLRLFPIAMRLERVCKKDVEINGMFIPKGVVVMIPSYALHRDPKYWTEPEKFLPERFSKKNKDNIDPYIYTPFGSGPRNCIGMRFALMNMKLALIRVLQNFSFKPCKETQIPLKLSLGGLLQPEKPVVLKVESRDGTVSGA
UniProt Q12809: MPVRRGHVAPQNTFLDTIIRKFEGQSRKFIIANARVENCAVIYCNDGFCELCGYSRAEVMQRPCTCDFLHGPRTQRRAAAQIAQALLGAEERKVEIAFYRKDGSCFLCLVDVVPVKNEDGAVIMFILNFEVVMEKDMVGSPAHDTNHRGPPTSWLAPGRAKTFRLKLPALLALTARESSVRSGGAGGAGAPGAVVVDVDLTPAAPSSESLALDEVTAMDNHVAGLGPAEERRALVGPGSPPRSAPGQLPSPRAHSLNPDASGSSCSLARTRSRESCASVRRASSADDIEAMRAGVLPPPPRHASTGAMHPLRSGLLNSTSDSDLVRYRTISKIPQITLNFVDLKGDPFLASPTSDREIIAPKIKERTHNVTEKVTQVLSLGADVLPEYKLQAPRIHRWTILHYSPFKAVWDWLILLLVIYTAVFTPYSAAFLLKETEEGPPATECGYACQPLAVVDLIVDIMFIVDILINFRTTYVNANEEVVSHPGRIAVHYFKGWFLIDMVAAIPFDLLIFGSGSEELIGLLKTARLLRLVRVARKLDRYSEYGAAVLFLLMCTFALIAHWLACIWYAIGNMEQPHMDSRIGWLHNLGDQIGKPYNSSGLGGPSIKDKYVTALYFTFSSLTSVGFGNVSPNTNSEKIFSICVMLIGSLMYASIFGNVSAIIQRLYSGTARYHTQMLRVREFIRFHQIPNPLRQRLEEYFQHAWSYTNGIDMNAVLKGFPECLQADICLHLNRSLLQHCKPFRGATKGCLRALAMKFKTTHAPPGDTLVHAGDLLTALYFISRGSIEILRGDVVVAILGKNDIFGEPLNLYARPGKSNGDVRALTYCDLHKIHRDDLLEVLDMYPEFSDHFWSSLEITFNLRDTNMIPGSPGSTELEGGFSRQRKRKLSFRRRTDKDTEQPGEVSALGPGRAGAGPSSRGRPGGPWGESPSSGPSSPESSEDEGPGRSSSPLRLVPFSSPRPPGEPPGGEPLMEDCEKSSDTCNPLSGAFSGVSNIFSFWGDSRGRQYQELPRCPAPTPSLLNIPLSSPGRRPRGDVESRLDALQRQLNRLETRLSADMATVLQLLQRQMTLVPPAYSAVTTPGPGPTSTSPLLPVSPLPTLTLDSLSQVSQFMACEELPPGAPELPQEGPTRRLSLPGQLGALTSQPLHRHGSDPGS

Experiments:
[1] = biological target: Cytochrome P450 2D6 (Homo sapiens) (UniProt P10635); assay: Cytochrome P450 Family 2 Subfamily D Member 6 (CYP2D6) small molecule antagonists: luciferase reporter qHTS assay (AID 1671196); conditions: P450-Glo CYP2D6 enzyme assay, luciferin luminescence, 1 h; series mostly up to 115 µM; further: nearly all actives have a fitted effect of over 50% in size
Summary of the method: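 Inhibition of CYP2D6 was gauged by loss of luminescence, since light produced tracks the luciferin generated from a proluciferin substrate. A 10 min room-temperature preincubation preceded 1 h NADPH-supported turnover.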

[2] = biological target: Cytochrome P450 2C19 (Homo sapiens) (UniProt P33261); assay: Cytochrome P450 Family 2 Subfamily C Member 19 (CYP2C19) small molecule antagonists: luciferase reporter qHTS assay (AID 1671197); conditions: P450-Glo CYP2C19 enzyme, luciferin luminescence, 1 h; series mostly up to 115 µM; further: nearly all actives have a fitted effect of over 65% in size
Summary of the method: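 Inhibition of CYP2C19 was scored from loss of luminescence in a P450-Glo proluciferin substrate assay, NADPH-started and run 1 h at 37C, with ketoconazole as positive control.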

[3] = biological target: Cytochrome P450 1A2 (Homo sapiens) (UniProt P05177); assay: Cytochrome P450 Family 1 Subfamily A Member 2 (CYP1A2) small molecule antagonists: luciferase reporter qHTS assay (AID 1671199); conditions: P450-Glo CYP1A2 enzyme, luciferin luminescence, 1 h; series mostly up to 115 µM; further: nearly all actives have a fitted effect of over 50% in size
Summary of the method: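 Signal from luciferin formed by CYP1A2 from a proluciferin substrate is read as luminescence, expressed in relative luminescence units. Compounds sit with enzyme 10 min, NADPH-driven reaction runs 1 h, all at room temperature.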

[4] = biological target: Cytochrome P450 2C9 (Homo sapiens) (UniProt P11712); assay: Cytochrome P450 Family 2 Subfamily C Member 9 (CYP2C9) small molecule antagonists: luciferase reporter qHTS assay (AID 1671198); conditions: P450-Glo CYP2C9 enzyme assay, luciferin luminescence; series mostly up to 115 µM; further: nearly all actives have a fitted effect of over 50% in size
Summary of the method: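 Enzyme-substrate mix preincubated with compound 10 min at room temperature; reaction started with NADPH regeneration solution, 1 h 37C. Luminescent luciferin product read after 20 min detection reagent.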

[5] = biological target: Cytochrome P450 3A4 (Homo sapiens) (UniProt P08684); assay: Cytochrome P450 Family 3 Subfamily A Member 4 (CYP3A4) small molecule antagonists: luciferase reporter qHTS assay (AID 1671201); conditions: P450-Glo CYP3A4 enzyme, luciferin luminescence, 1 h; series mostly up to 115 µM; further: nearly all actives have a fitted effect of over 50% in size
Summary of the method: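 Relative luminescence units after 20 min with luciferin detection reagent served as read-out. Beforehand, CYP3A4 turned over a proluciferin substrate for 1 h at room temperature with NADPH regeneration, following 10 min compound preincubation.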

[6] = biological target: Voltage-gated inwardly rectifying potassium channel KCNH2 (Homo sapiens) (UniProt Q12809); assay: Human Ether-a-go-go-Related Gene (hERG) channel small molecule antagonists: fluorescence cell-based qHTS assay (AID 1671200); conditions: hERG-U2OS cells, FluxOR thallium flux fluorescence; series mostly up to 76.8 µM; further: nearly all actives have a fitted effect of over 50% in size;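 on activity change, negative = inhibition: hERG-expressing U2OS cells given a thallium stimulus after FluxOR II dye loading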
Summary of the method: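 Thallium served as the potassium surrogate; its influx into dye-loaded U2OS cells carrying the channel was measured by fluorescence over 2 min.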
On the % scale 0 is the no-effect control and ±100 the full control effect; potency means the concentration at half of the fitted maximal effect.

Compound: C=CCc1cc(OC)c(O)c(C(=O)NCCO)c1
- Potency [1]: inconclusive: 43.6 µM [inhibitor, single point]
- Potency [2]: inconclusive: 4.36 µM [inhibitor, single point]
- Potency [3]: inconclusive: 25.7 µM [inhibitor, partial curve, poor fit]

Compound: COS(C)(=O)=O
- Potency [1]: inconclusive: 58.5 µM [inhibitor, partial curve]
- Potency [4]: inactive
- Potency [3]: inconclusive: 73.7 µM [inhibitor]

Compound: NCCS
- Potency [1]: inactive
- Potency [4]: inconclusive: 19.5 µM [inhibitor, partial curve, poor fit]

Compound: CC(=O)SCc1ccco1
- Potency [1]: inactive
- Potency [2]: inconclusive: 89.4 µM [inhibitor, single point]
- Potency [4]: inconclusive: 63.3 µM [inhibitor, partial curve, poor fit]
- Potency [3]: inactive
- Potency [5]: inconclusive: 31.7 µM [inhibitor, partial curve]

Compound: CCOC(=O)C(=O)CCc1ccccc1
- Potency [1]: inconclusive: 34.7 µM [inhibitor, partial curve]
- Potency [4]: inconclusive: 30.9 µM [inhibitor, partial curve]

Compound: CC(N)CN (configuration not stated)
- Potency [1]: inconclusive: 42.8 µM [inhibitor, partial curve]
- Potency [4]: inconclusive: 67.8 µM [inhibitor]

Compound: NCCN
- Potency [1]: inconclusive: 72.4 µM [inhibitor]
- Potency [2]: inconclusive: 91.1 µM [inhibitor, single point] and inconclusive: 7.96 µM [inhibitor, full curve]
- Potency [4]: inconclusive: 63.3 µM [inhibitor]
- Potency [3]: inconclusive: 72.4 µM [inhibitor, partial curve, poor fit]

Compound: CC(Cl)COP(=O)(OCC(C)Cl)OCC(C)Cl (configuration not stated)
- Potency [1]: inactive
- Potency [4]: inconclusive: 39.7 µM [inhibitor]
- Potency [3]: active: 22.3 µM

Compound: O=C(OCC1(COC(=O)c2cccnc2)CCCC(COC(=O)c2cccnc2)(COC(=O)c2cccnc2)C1O)c1cccnc1
- Potency [1]: inconclusive: 13.8 µM [inhibitor, partial curve]
- Potency [4]: active: 12.3 µM

Compound: CN(C)C(=O)Nc1ccc(Cl)c(Cl)c1
- Potency [1]: inconclusive: 43.6 µM [inhibitor, single point]
- Potency [4]: inconclusive: 39.8 µM [inhibitor, partial curve] and inconclusive: 71 µM [inhibitor, partial curve]

Compound: O=C1c2ccccc2CCc2ccccc21
- Potency [1]: inconclusive: 64.6 µM [inhibitor, partial curve, poor fit] and inactive
- Potency [2]: active: 18.2 µM and active: 7.76 µM
- Potency [4]: inconclusive: 30.9 µM [inhibitor, partial curve]
- Potency [3]: active: 1.45 µM and active: 1.62 µM

Compound: O=C(O)Cc1cccc(-c2cc(CCCCCCc3ccc(O[C@H]4O[C@H](CO)[C@@H](O)[C@H](O)[C@@H]4O)c(-c4cccc(CC(=O)O)c4)c3)ccc2O[C@H]2O[C@H](CO)[C@@H](O)[C@H](O)[C@@H]2O)c1
- activity change, negative = inhibition [1]: inactive: 0.276% [at 0.435 µM]
- activity change, negative = inhibition [2]: inactive: 11.7% [at 0.435 µM]
- activity change, negative = inhibition [4]: inactive: 0.681% [at 0.435 µM]
- activity change, negative = inhibition [5]: inactive: 0.205% [at 0.435 µM]

Compound: CC(O)(P(=O)(O)O)P(=O)(O)O
- Potency [1]: inconclusive: 45 µM [inhibitor, partial curve, poor fit]
- Potency [4]: inconclusive: 40.1 µM [inhibitor, partial curve, poor fit] and inactive

Compound: CCN(CC)C(C)CN1c2ccccc2Sc2ccccc21 (configuration not stated)
- Potency [1]: active: 30.9 µM
- Potency [4]: inconclusive: 27.5 µM [inhibitor, partial curve, poor fit]
- Potency [6]: inconclusive: 19 µM [inhibitor, partial curve]

Compound: O=S(=O)(O)C(F)(F)F
- Potency [1]: inconclusive: 39.9 µM [inhibitor, partial curve]
- Potency [4]: inactive
- Potency [5]: inconclusive: 7.96 µM [inhibitor, single point]

Compound: Cc1cccc2ccccc12
- Potency [1]: inconclusive: 40.5 µM [inhibitor, partial curve] and inactive
- Potency [4]: inactive and inconclusive: 79.6 µM [inhibitor]
- Potency [3]: inconclusive: 79.6 µM [inhibitor, single point]

Compound: CCCCc1ccc(N)cc1
- Potency [1]: inconclusive: 35.6 µM [inhibitor, partial curve]
- Potency [4]: active: 44.8 µM
- Potency [3]: active: 35.6 µM
- Potency [5]: inconclusive: 12.6 µM [inhibitor, full curve]

Compound: CC(=O)c1ccccc1N
- Potency [1]: inconclusive: 89.4 µM [inhibitor, single point]
- Potency [3]: inconclusive: 35.6 µM [inhibitor, partial curve]

Compound: Nc1nc2c(ncn2COC(CO)CO)c(=O)[nH]1
- Potency [1]: inactive
- Potency [4]: inactive
- Potency [3]: inactive

Compound: CCOc1ccc(NC(=O)CC(C)=O)cc1
- Potency [1]: active: 35.6 µM
- Potency [4]: inconclusive: 39.9 µM [inhibitor, partial curve, poor fit]
- Potency [3]: active: 31.7 µM

Compound: CCN1CCC[C@H]1CNC(=O)c1c(OC)ccc(Br)c1OC
- Potency [1]: inconclusive: 15.5 µM [inhibitor, partial curve]
- Potency [3]: inactive

Compound: CC(CC(C#N)(c1ccccc1)C(C)C)N(C)C (configuration not stated)
- Potency [1]: active: 15.5 µM
- Potency [4]: inactive
- Potency [3]: inactive

Compound: CC(C)(O)C(=O)O
- Potency [1]: inconclusive: 38.6 µM [inhibitor, partial curve]
- Potency [3]: inconclusive: 38.6 µM [inhibitor]

Compound: O=C(O)c1ccccc1NCCc1ccccc1
- Potency [1]: inconclusive: 8.71 µM [inhibitor, full curve]
- Potency [4]: active: 13.8 µM
- Potency [3]: inconclusive: 34.7 µM [inhibitor, partial curve]

Compound: OC[C@H]1O[C@@H](OCCc2ccc(O)cc2)[C@H](O)[C@@H](O)[C@@H]1O
- Potency [1]: inconclusive: 43.6 µM [inhibitor, single point]
- Potency [3]: inactive

Compound: C=C(C)C(=O)OCCOCC
- Potency [1]: active: 31.9 µM
- Potency [4]: inconclusive: 35.7 µM [inhibitor, partial curve]
- Potency [3]: active: 40.1 µM

Compound: COc1ccc(Nc2ccccc2)c(C)c1
- Potency [1]: inconclusive: 39.9 µM [inhibitor, partial curve]
- Potency [4]: inconclusive: 20 µM [inhibitor, full curve, poor fit]
- Potency [3]: inactive and active: 11.2 µM
- Potency [5]: inconclusive: 63.3 µM [inhibitor, partial curve]

Compound: CCN(CC)CCc1nc(-c2ccccc2)no1
- Potency [1]: active: 7.76 µM
- Potency [3]: inconclusive: 12.9 µM [inhibitor, partial curve]

Compound: CCC(=O)O[C@]1(C(=O)COC)[C@@H](C)C[C@H]2[C@@H]3CCC4=CC(=O)C=C[C@]4(C)C3(F)[C@@H](O)C[C@@]21C (some centres not stated)
- Potency [1]: active: 15.5 µM
- Potency [4]: inconclusive: 27.5 µM [inhibitor, partial curve]
- Potency [3]: inactive

Compound: CCCCCCCCCCCCCCCC/C=C/C1CC(=O)OC1=O (configuration not stated)
- Potency [1]: inconclusive: 13.7 µM [inhibitor, partial curve]
- Potency [4]: inconclusive: 34.5 µM [inhibitor, partial curve, poor fit]
- Potency [3]: inconclusive: 27.4 µM [inhibitor, partial curve]

Compound: O=C(O)c1ccc(C(=O)O)c(C(=O)O)c1
- Potency [1]: inconclusive: 39.9 µM [inhibitor, partial curve]
- Potency [3]: inactive

Compound: CCC(C)=O
- Potency [1]: inactive
- Potency [3]: inconclusive: 44.5 µM [inhibitor, partial curve]

Compound: CC(=O)OC/C=C(\C)CCC=C(C)C
- Potency [1]: inconclusive: 62.5 µM [inhibitor, partial curve, poor fit]
- Potency [3]: inconclusive: 31.7 µM [inhibitor, partial curve]

Compound: O=C(OCCc1ccccc1)c1ccccc1
- Potency [1]: inconclusive: 35.6 µM [inhibitor, partial curve]
- Potency [4]: active: 31.7 µM
- Potency [6]: inactive

Compound: Cc1ccnc2ccccc12
- Potency [1]: inconclusive: 31.6 µM [inhibitor, partial curve]
- Potency [4]: inactive
- Potency [3]: inconclusive: 35.5 µM [inhibitor, partial curve]

Compound: CC(=O)OC/C=C(\C)CC/C=C(\C)CCC=C(C)C
- Potency [1]: inconclusive: 44.8 µM [inhibitor, partial curve, poor fit] and inconclusive: 89.4 µM [inhibitor, partial curve, poor fit]
- Potency [4]: inconclusive: 31.7 µM [inhibitor, partial curve, poor fit]
- Potency [3]: inconclusive: 71 µM [inhibitor, partial curve]
- Potency [5]: inconclusive: 71 µM [inhibitor, single point]

Compound: CC(=O)Nc1ccc(OC(=O)c2ccccc2OC(C)=O)cc1
- Potency [1]: inconclusive: 17.4 µM [inhibitor, partial curve]
- Potency [4]: inactive
- Potency [3]: inconclusive: 24.5 µM [inhibitor, partial curve]

Compound: C=C(C)C(=O)O[C@H]1C[C@@H]2CC[C@@]1(C)C2(C)C
- Potency [1]: inconclusive: 31.5 µM [inhibitor, partial curve]
- Potency [4]: inconclusive: 39.7 µM [inhibitor]
- Potency [3]: inconclusive: 62.9 µM [inhibitor, partial curve]

Compound: C=CC(C)(O)CCCC(C)CCCC(C)CCCC(C)C (configuration not stated)
- Potency [1]: inconclusive: 63 µM [inhibitor, partial curve]
- Potency [3]: active: 35.4 µM

Compound: C=CC[N+]1([C@H]2C[C@H]3[C@@H]4CC[C@H]5C[C@H](OC(C)=O)[C@@H](N6CCCCC6)C[C@]5(C)[C@H]4CC[C@]3(C)[C@H]2OC(=O)CC)CCCCC1
- Potency [1]: active: 11 µM
- Potency [3]: inactive
